In paper PMC4458842 one finds binding data, which are given here for one molecule.

Protein sequences, listed by entry. Tags and fused reporters are not part of them. Lines headed by an entry give the natural chain unless they say otherwise; changes in a name come on top.
UniProt Q9SRY3: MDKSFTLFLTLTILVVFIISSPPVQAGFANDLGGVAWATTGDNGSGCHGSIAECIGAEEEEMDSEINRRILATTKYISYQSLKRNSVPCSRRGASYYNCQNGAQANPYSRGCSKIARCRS

These are yes or no findings as the source states them, for the method shown. In cells and extracts the contact can be indirect. A result given as binding can be weak or reduced; the word gives no strength. Tags and fused reporters may be left off the sequences shown.

This experiment addresses MBP-RALF1 (Arabidopsis) (UniProt Q9SRY3). Description: pull-down; MBP-RALF1 bait on resin; extract of protoplasts co-expressing FER-GFP and HA-LLG1; detected by anti-GFP or anti-HA; only the target purified.

B1: HA-LLG1 (protein, UniProt Q9FKT1 24-144)
chain: SFISDGVFESQSLVLGRNLLQTKKTCPVNFEFMNYTIITSKCKGPKYPPKECCGAFKDFACPYTDQLNDLSSDCATTMFSYINLYGKYPPGLFANQCKEGKEGLECPAGSQLPPETSAEVN
For B1, the binding result is on record as “binds”.
